According to PubChem BioAssay AID2685 (National Center for Advancing Translational Sciences (NCATS), 2010):
The list shows a part of the results. The main result of the screen is listed elsewhere. These columns were measured beside it and carry no call. Most of these compounds were active or inconclusive in the main read-out, so they are no random draw. Words in brackets tell the shape of the fitted curve; partial curves, single points and poor fits give uncertain potencies.

Test: qHTS Assay for Lipid Storage Modulators in Drosophila S3 Cells;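 as to cell number change: cells counted by Cell Tracker Red CMTPX staining in the red channel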
Details: BODIPY lipid droplet fluorescence, 18-24 h; for cell number change: measured here: cell count max response, cells fed with added oleic acid
Procedure, shortened: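 Drosophila S3 cells loaded with oleic acid (400 uM, as added) and compounds at several concentrations; lipid droplets imaged by 488-nm laser-scanning cytometry, 500–530 nm intensity and object ratio to cell channel. Percent activity normalized to 20 uM Triacsin C.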

[1] = measured here: cell number channel AC50, cells fed with added oleic acid
[2] = measured here: lipid fluorescence (Fed channel) AC50, cells fed with added oleic acid

Row | Structure (SMILES) | cell number change [%] | AC50 [1] | AC50 [2]
1 | CCCCCOC(=O)C1=C(C)Nc2ncnn2C1c1cccs1 (stereo not given) | 24.4 | 0.366 µM [rising, full curve, poor fit] | 0.164 µM [rising, full curve, poor fit]
2 | CC1=C([N+](=O)[O-])C(c2ccccc2Cl)NC(=O)N1 (stereo not given) | 12 |  | 1.03 µM [rising, full curve]
3 | CCCCCc1nnc(NC(=O)Cn2cnc3ccccc3c2=O)s1 | 12.5 |  | 0.0291 µM [rising, full curve, poor fit]
4 | O=S(=O)(Nc1cccnc1)c1cccs1 | 6.88 |  | 
5 | O=C(N/N=C/c1sc(N2CCOCC2)nc1-c1ccccc1)c1ccccc1O | -83.3 | 29.1 µM [falling, single point] | 29.1 µM [falling, single point]
6 | Cc1nn(C2CCS(=O)(=O)C2)c(C)c1CN(C)C(=O)c1ccc(Cl)cc1 (stereo not given) | -11.3 |  | 6.51 µM [falling, single point]
7 | O=C(Nc1nc(-c2cccs2)cs1)c1ccc(Cl)s1 | -17.4 |  | 9.2 µM [falling, partial curve]
8 | Nc1oc2ccccc2c1C(=O)Cc1ccccc1O[C@@H]1O[C@H](CO)[C@@H](O)[C@H](O)[C@H]1O | -30.5 | 1.46 µM [falling, partial curve, poor fit] | 1.03 µM [falling, full curve]
9 | O=C(Nc1nc(-c2ccc(Cl)s2)cs1)c1ccncc1 | -42.4 | 2.91 µM [falling, full curve] | 2.59 µM [falling, full curve]
10 | Cc1[nH]c(C)c(S(=O)(=O)NCc2ccc(OC(C)C)cc2)c1C(=O)N1CCCC1 | 11.9 | 5.8 µM [rising, partial curve] | 
11 | CCOc1ccc(N(CC(=O)NCc2ccc3c(c2)OCO3)C(=O)c2csnn2)cc1 | 18.1 |  | 
12 | COc1ccc(NC(=O)CSc2nc(=O)n(CCN3CCOCC3)c3c2CCCC3)c(OC)c1 | 14.9 | 0.58 µM [rising, partial curve, poor fit] | 0.259 µM [rising, full curve, poor fit]
13 | COc1ccc(/C=C/C(=O)Nc2cc(S(=O)(=O)N3CCOCC3)ccc2C)cc1OC | -0.726 |  | 0.231 µM [rising, full curve, poor fit]
14 | COc1cc(NC(=O)C2=CC(c3ccc(C)cc3)=NS(=O)(=O)N2C)cc(OC)c1OC |  |  | 1.16 µM [falling, partial curve, poor fit]
15 | Cc1ccc(C)c(Oc2coc3cc(O)ccc3c2=O)c1 | -1.8 |  | 
16 | CC(=O)c1ccc(OCC(O)CN2CC(C)OC(C)C2)cc1 (stereo not given) | 4.69 |  | 
17 | COCC(C)NCc1cccc(OC)c1OC (stereo not given) |  |  | 0.092 µM [rising, full curve]
18 | O=C(O)C1Sc2[nH]c(=O)sc2C2c3cc(Br)ccc3OC(=O)C12 (stereo not given) | -11.8 |  | 
19 | CCOC(=O)c1ccc(NC(=O)c2ccc(OC(C)C)c(OC)c2)cc1 | 99.1 | 20.6 µM [rising, partial curve] | 20.6 µM [rising, partial curve]

Row | Structure (SMILES) | cell number change [%] | AC50 [1] | AC50 [2]
20 | O=C(CSc1nnc2ccccn12)NC(=O)Cc1ccccc1 |  | 0.103 µM [rising, single point] | 
21 | CCOC(=O)C(NC(=O)c1ccccc1)=C1C=C(C)OC(C)=C1 | 2.5 |  | 0.00461 µM [falling, full curve, poor fit]
22 | CC(=O)NC(Cc1c[nH]c2ccccc12)C(=O)N/N=C/c1ccccc1 (stereo not given) | -31 | 9.2 µM [falling, partial curve] | 13 µM [falling, partial curve]
23 | CC(=O)c1cccc(NC(=S)Nc2ccc(F)cc2)c1 | -7.09 |  | 0.411 µM [falling, single point]
24 | O=C(CCc1nnc(CCC2CCCCC2)o1)NCCn1cccn1 | -3.36 |  | 
25 | O=C(O)CSc1nnc(Cn2cnc3ccccc32)n1CCc1ccccc1 | 3.91 |  | 
26 | Cc1ccc2nc(-c3ccccc3)cc(C(=O)N(C)CC(=O)Nc3ccccc3Br)c2c1 | 66.3 | 5.8 µM [rising, partial curve] | 
27 | CC(=O)n1cc([C@@H]2C=C(C(=O)N3CCN(Cc4ccc5c(c4)OCO5)CC3)O[C@H](OCc3ccc(CO)cc3)C2)c2ccccc21 | -9.08 |  | 32.6 µM [falling, single point]
28 | Cc1ccc2nc(NC(=O)c3ccc(S(=O)(=O)N4CCCc5ccccc54)cc3)sc2c1 | -2.04 |  | 
29 | COc1ccc(OC)c(-c2nn(-c3ccccc3)cc2C(=O)NCC(c2ccco2)N2CCCC2)c1 (stereo not given) | -0.618 |  | 29.1 µM [falling, single point]
30 | COc1cc(OC)cc(C(=O)Nc2ccc(S(=O)(=O)Nc3ccccn3)cc2)c1 | 31.3 |  | 0.58 µM [rising, single point]
31 | O=C1c2ccc3c4c(ccc(c24)C(=O)N1c1cccc(O)c1)C(=O)N(c1cccc(O)c1)C3=O |  |  | 3.66 µM [falling, single point]
32 | COc1ccc(OCC(=O)Nc2ccc3c(c2)nc(CCN2CCC(C)CC2)n3C)cc1 | -11.8 |  | 0.58 µM [falling, single point]
33 | O=C(C[C@H]1C(=O)N(C2CCCCC2)C[C@@H]1Cc1ccccc1)Nc1ccccc1 | 20.7 |  | 29.1 µM [falling, single point]
34 | CC(=O)Nc1ccc(-c2cc(-c3ccc(NC(C)=O)cc3)nc(-c3ccccc3)n2)cc1 | -21.2 |  | 3.26 µM [falling, partial curve]
35 | CCN1CCN(CCCNC(=O)C2c3ccccc3C(=O)N(C)C2c2ccc(OC)cc2)CC1 (stereo not given) | -23.2 |  | 0.0058 µM [falling, full curve, poor fit]
36 | COc1cccc(-c2ccc(NC(=O)C3CCCN(Cc4ccc(CO)o4)C3)cc2)c1 (stereo not given) | 4.11 |  | 0.259 µM [falling, full curve]
37 | O=C(Nc1cccc(Cl)c1)c1cccc(N2C(=O)C3CC=CCC3C2=O)c1 (stereo not given) | -6.67 |  | 13 µM [falling, partial curve, poor fit]
38 | COc1ccccc1N(C)S(=O)(=O)c1ccc(Cl)c(C(=O)N2CCC2)c1 |  | 0.116 µM [rising, full curve, poor fit] | 

Three compounds drawn at random from the list so far:
Row | Structure (SMILES) | cell number change [%] | AC50 [1] | AC50 [2]
27 | CC(=O)n1cc([C@@H]2C=C(C(=O)N3CCN(Cc4ccc5c(c4)OCO5)CC3)O[C@H](OCc3ccc(CO)cc3)C2)c2ccccc21 | -9.08 |  | 32.6 µM [falling, single point]
21 | CCOC(=O)C(NC(=O)c1ccccc1)=C1C=C(C)OC(C)=C1 | 2.5 |  | 0.00461 µM [falling, full curve, poor fit]
23 | CC(=O)c1cccc(NC(=S)Nc2ccc(F)cc2)c1 | -7.09 |  | 0.411 µM [falling, single point]
